Results: article PMC11844196 (Journal of Experimental Pharmacology, 2025)

How the values were obtained:
MDA-MB-231 cells = assay: PrestoBlue cytotoxicity assay; assay type: cell-based, human; details: MDA-MB-231 breast cancer cells, 24 h treatment, linear regression
In short: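 Cells plated at 10,000 cells/well and incubated 24 h at 37°C, 5% CO2. MCF 10A were grown in MEBM to 70–80% confluency. Treated for 24 h with eight concentrations (250, 125, 62.5, 31.25, 15.625, 7.8125, 3.9, 1.95 µg/mL) in three parallel experiments, with cisplatin as positive control.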

MCF7 cells = assay: PrestoBlue cytotoxicity assay; assay type: cell-based, human; details: MCF7 breast cancer cells, 24 h treatment, linear regression
In short: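 MCF7 cells grown in EMEM with 10% FBS and 1% penicillin–streptomycin, seeded at 10,000 cells/well, then incubated 24 h at 37°C, 5% CO2. Exposed 24 h to eight concentrations from 250 to 1.95 µg/mL in three parallel experiments. Controls: cisplatin (positive), media, cells and DMSO. PrestoBlue added for 2 h; absorbance read at 570 nm against 600 nm reference. Percent growth inhibition calculated; IC50 by linear regression.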

## N.N.[Cl][Pt][Cl] [Cisplatin]
MDA-MB-231 cells
  IC50 Value MDA-MB-231: 21,6 µg/mL
MCF7 cells
  IC50 Value MCF7: 30,08 µg/mL
